Laboratory results reported in the RNAGym collection of RNA variant scans (doi:10.1126/science.aae0568).
This sample is rich in variants without activity.

B1: tRNA (parent)
chain: GUUCCGUUGGCGUAAUGGUAACGCGUCUCCCUCCUAAGGAGAAGACUGCGGGUUCGAGUCCCGUACGGAACG

Variants of: B1
Test: yeast fitness relative to wild type (ratio to wild type); higher = fitter; tRNA-Arg(CCU), competitive growth, 37 C, YPD
Procedure, shortened: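 Variants of the tRNA-Arg(CCU) gene, chemically synthesised with a 3% per-site mutation rate at 69 sites, were placed at the native genomic locus in Saccharomyces cerevisiae. The pooled strains were competed in YPD at 37°C for 24 hours in six parallel replicates. Gene amplicons from the start population and from each end population were read by 100-nucleotide paired-end sequencing. Darwinian fitness relative to wild type came from changes in genotype frequencies; genotypes needed ≥ 100 starting reads, and estimates < 0.5 were set to 0.5.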

Point of comparison: G58U C66A A70C, yeast fitness 0.665. Against it:
- C4A C34A G52C C60G — lower, ≤ 0.5
- G18A C29U U35A G63A — lower, ≤ 0.5
- A42U C49A G56C G67U — lower, ≤ 0.5
- U3C C29U G58C — lower, 0.58
- A15G C33U A45U C62A — lower, ≤ 0.5
- G25U U64G — higher, 0.788
- C11G A15U C24G G41C C61A — lower, ≤ 0.5
- G23A C27G G56A — lower, ≤ 0.5
- A20G A21C U28C C61A A69U — lower, ≤ 0.5
- C5A C30U C60U — lower, ≤ 0.5
- U54C C61A G68U — lower, ≤ 0.5
- C5U A37U U53A C66U G67A — lower, ≤ 0.5
- G23C A37G A43U G50C A57G — lower, ≤ 0.5
- C4G G56C U59A A65G — lower, ≤ 0.5
- C5U C24G A42C U53G G67C — lower, ≤ 0.5
- U13G U32A C46A C49A — lower, ≤ 0.5
- A20C G44C A70U — lower, 0.573
- C11G C30A — lower, 0.588
- G9C G25C C31U — lower, ≤ 0.5
- G10C A14U C22A A36G — lower, ≤ 0.5
- C5U C11U C29A A40C A45C C61G — lower, 0.612
- A15G A21U C34G C49G C61U A69G — lower, ≤ 0.5
- U3A C4G G9A C11G C60A C66U — lower, ≤ 0.5
- A43C G68C — higher, 0.72
- G38A G51C C55A A70U — lower, ≤ 0.5
- U3G U32G A65C — lower, ≤ 0.5
- C11U G39C C55U — lower, ≤ 0.5
- A21U C27G — lower, ≤ 0.5
- C5U C22G G38C C60U — lower, ≤ 0.5
- A14G A21C — higher, 0.866
- G41A A43U A45G G56A — lower, ≤ 0.5
- C4G U7C C33G G52A — lower, 0.652
- G18A C46U U59C G68A — lower, 0.53
- U2C A20C A36G U54C C66U — lower, ≤ 0.5
- U26C C29A C34A C61A — lower, ≤ 0.5
- U2G A14C A21G — lower, ≤ 0.5
- C34G G50A C62U C66A — lower, ≤ 0.5
- U8G G18C A37G A40G A57C — lower, ≤ 0.5
- G12A A21U — higher, 0.729
- U13C A21G A36U A57G — lower, ≤ 0.5
- A43U A65G C66U — higher, 0.794
- A36C G51A G67A — lower, ≤ 0.5
- C22U C30U C33U A45C — lower, 0.548
- G17A U19A A21C G44C — lower, ≤ 0.5
- A21C C30G G68C — lower, ≤ 0.5
- C5U C31U — higher, 1.03
- G12C C34G A36U C62A — lower, ≤ 0.5
- C22G C27G U54C C66U — lower, ≤ 0.5
- U3A C30G C46G — lower, ≤ 0.5
- U3C G18C C31G G68C — lower, ≤ 0.5
- C4G C11U C60G — lower, ≤ 0.5
- G18A A20G C46U U59C G68A — lower, ≤ 0.5
- C5U C33U A42G G67C — lower, ≤ 0.5
- A20U G25C G39A G48C A70U — lower, ≤ 0.5
- C4A A45U U53G A65C — lower, ≤ 0.5
- G6A C46G G52C C62G C66U — lower, ≤ 0.5
- C24A A40C A43C C46U — lower, ≤ 0.5
- A37G A40G G63C — lower, ≤ 0.5
- U7A A40U — higher, 0.714
- C22A C30U A37C A43U — lower, ≤ 0.5
- A42C A45C G68C — lower, ≤ 0.5
- A15U C29U A69C — lower, ≤ 0.5
- A21U A42G C49U — lower, ≤ 0.5
- U2C U16A G38C G58C — lower, ≤ 0.5
- C11U G18C C22U G56C — lower, ≤ 0.5
- U2G G39C U47C C66A — lower, ≤ 0.5
- U7A C29A C31A — lower, ≤ 0.5
- A36G A40C G63C — lower, ≤ 0.5
- C22G A45C C46A G48A U64C — lower, ≤ 0.5
- U3C G12C G41A A42C — lower, ≤ 0.5
- C5G G17A G18A A65C G68C — lower, ≤ 0.5
- U26G G44A C62U A70C — lower, ≤ 0.5
- G12C C31A A40C C62U — lower, ≤ 0.5
- G6A A43G — higher, 0.801
- C4G C29A C66U — lower, ≤ 0.5
- C33U A36U G41C A65G — lower, ≤ 0.5
- G12A A14U G48A U53C — lower, ≤ 0.5
- U7A A14G C31U A40U — lower, ≤ 0.5
- C29A C34G G58C — lower, ≤ 0.5
- C11A C33A — lower, ≤ 0.5
- U3C G41C G52C — lower, ≤ 0.5
- G6C C11G A57U — lower, ≤ 0.5
- C4U C24U C55U — lower, ≤ 0.5
- G25C A43U A45G U47C — lower, ≤ 0.5
- C4G C27G C34G G51A — lower, ≤ 0.5
- C29U U32A G67A — lower, ≤ 0.5
- U8A C30U A36U C60U A65G — lower, ≤ 0.5
- C27U C62U G68C A69G — lower, ≤ 0.5
- A21G C29G G58C A70C — lower, ≤ 0.5
- U2A G9C U13A A15G C33A A37U G50C A69C — lower, ≤ 0.5
- C11A U16C G18C A45C A57C G67A — lower, ≤ 0.5
- C31G A45U U47A G67A — lower, ≤ 0.5
- U2A C27G A37C C55U — lower, ≤ 0.5
- C5A U16C C22U A57U — lower, ≤ 0.5
- C30G — higher, 0.68
- C5G U26C G44A A70G — lower, ≤ 0.5
- U3G G6A A14G G25C U47A G56A — lower, ≤ 0.5
- C22A C24U C30U C31G C49G — lower, ≤ 0.5
- G18C C22G C66U — lower, ≤ 0.5
- U19C A20C C31G G48A — lower, ≤ 0.5
- C11U C34U G48A C66A — lower, ≤ 0.5
- A20U C29G C49G G63C C66U — lower, ≤ 0.5
- A43C C49U G63U — lower, ≤ 0.5
- U3A A20U C31G — lower, 0.535
- U2A G41C G50C A65C — lower, ≤ 0.5
- G18C A21G A40G C46G G50U — lower, ≤ 0.5
- C4A G6A G50C A57C A69C — lower, ≤ 0.5
- G12C U26G C27U C30G — lower, ≤ 0.5
- C11G C55G — lower, 0.594
- C4G G6A C24U A40U G56C — lower, ≤ 0.5
- C4A C5G A45U — lower, ≤ 0.5
- G10C C33A A40U U54A — lower, ≤ 0.5
- U8G C49G U53C C60A — lower, ≤ 0.5
- U16A C31A C33G G38A C66U — lower, ≤ 0.5
- A15C U16C C31G G38C — lower, ≤ 0.5
- C22G G51C C66U — lower, ≤ 0.5
- U19A U35A G44C G48C C55A C66G — lower, ≤ 0.5
- C4A A20G C29U C31A A40G U47A — lower, ≤ 0.5
- U26C C33G G39A G44A — lower, ≤ 0.5
- A15C C30G A69C A70G — lower, ≤ 0.5
- C11A A21C C31A C46G — lower, ≤ 0.5
- G9A G56A C62A G67A — lower, ≤ 0.5
- C22G C49G C62U — lower, ≤ 0.5
- G6C C22A G41A G44C C49A — lower, ≤ 0.5
- U2C A20C C29G A36C G63A A70C — lower, ≤ 0.5
- G9U C11A C24G C30G — lower, ≤ 0.5
- G10C C33G C62A G67C — lower, ≤ 0.5
- U3A A21G U35A A40U U54C — lower, ≤ 0.5
- C4G C5U C22G C62G — lower, ≤ 0.5
- C27A U35C — higher, 0.735
- U28C G52C A65C — lower, 0.596
- U19C C22A G25A U35G — lower, ≤ 0.5
- U3C C30G C31U A57G C60G C61G — lower, ≤ 0.5
- C5G C11U C31G C62A — lower, ≤ 0.5
- A15G U16A A20G A42G — lower, 0.577
- U8G C22G C24G C30G A36G — lower, ≤ 0.5
- U2A A40U G48C — lower, ≤ 0.5
- C30U C60U — higher, 0.734
- U2A A21G C33U G51C — lower, ≤ 0.5
- U32A G41C C49G G52A C55U — lower, ≤ 0.5
- G12A A20U C62U A65G — lower, ≤ 0.5
- A21G G48C — higher, 1.01
- G56A G58C U64A A69C — lower, ≤ 0.5
- C5U C22G A65G — lower, 0.588
- C5U C33G G50C C62G C66U — lower, ≤ 0.5
- A14U A21C C22U C33G A45G C46G — lower, ≤ 0.5
- C24U A43U U47G — lower, ≤ 0.5
- G6C A20U C29A G58A C61G A70U — lower, ≤ 0.5
- A20C C34A A45G A65U C66G — lower, ≤ 0.5
- C22U A42G A45U G52A — lower, ≤ 0.5
- C5U A15U C27G C62U — lower, ≤ 0.5
- C11G A20U C29A C30U C46G — lower, ≤ 0.5
- C24G G63C G67A — lower, ≤ 0.5
- C33U A42C C61A G68U — lower, ≤ 0.5
- A15U A20C U32G U54C A65C — lower, ≤ 0.5
- C29G U47A G58A C66A — lower, ≤ 0.5
- A40U U64C — higher, 1.08
- U7A G9A C24A G63A — lower, ≤ 0.5
- U3C U19G A21C C55G U59A — lower, ≤ 0.5
- A15G C46A G48A A57U C60A — lower, ≤ 0.5
- C66A A69G A70C — lower, ≤ 0.5
- G18C C55A — lower, ≤ 0.5
- A21G C61A G67A — lower, 0.532
- C4A G10A C31A A65C — lower, ≤ 0.5
- C5A C60A — lower, 0.651
- G6A U8C C22G U47A A70C — lower, ≤ 0.5
